Consider 1 compound from patent publication US7348140B1, “Clinical indications for genotyping polymorphic variants of G-protein coupled receptors” (Acadia Pharmaceuticals, Inc., priority 2001, dated 2008).

Chains of the proteins cited; added tags and fusions are not shown.
UniProt P41595, whole entry: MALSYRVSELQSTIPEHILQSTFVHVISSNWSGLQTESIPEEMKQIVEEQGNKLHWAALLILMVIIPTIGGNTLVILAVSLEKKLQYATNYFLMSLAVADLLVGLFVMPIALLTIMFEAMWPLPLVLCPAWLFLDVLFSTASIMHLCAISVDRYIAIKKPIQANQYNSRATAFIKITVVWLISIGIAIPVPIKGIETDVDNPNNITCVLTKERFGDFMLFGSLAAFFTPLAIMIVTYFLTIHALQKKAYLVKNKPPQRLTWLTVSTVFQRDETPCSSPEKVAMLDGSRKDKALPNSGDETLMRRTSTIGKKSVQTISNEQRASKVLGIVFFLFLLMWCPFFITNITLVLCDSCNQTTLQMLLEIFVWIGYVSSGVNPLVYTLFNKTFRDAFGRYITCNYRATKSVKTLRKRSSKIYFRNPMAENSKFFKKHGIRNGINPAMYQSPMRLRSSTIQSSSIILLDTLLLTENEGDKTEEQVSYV

pEC50: −log10 of the molar value.

In this experiment the target is serotonin 2B receptor (Arginine 388) (Homo sapiens, UniProt P41595). Description: cell-based.

The pEC50 is the negative decadic logarithm of the EC50, by convention in mol/L. Low values mean a large EC50, high ones a small EC50. As to `CC[C@@H](CO)NC(=O)[C@@H]1C=C2c3cccc4c3c(cn4C)C[C@H]2N(C)C1` [Methysergide], the pEC50 was 9.26.
